# Laboratory results published in PubChem BioAssay AID1347423 (Functional Genomics Laboratory (NCATS/FGL), 2020).
# The campaign covered roughly 52,000 sequences. About 210 (0.4%) were called active.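 Rule for the calls: active = gene whose silencing raises cell survival under the drug, median off-target-corrected z-score across its silencing RNAs 2 or more; inactive = the rest.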 The list shows a part of the results.
# Experiment: Resistance to Poly (ADP-Ribose) Polymerase inhibitor: Gene Identification via Genome-wide siRNA Screen
# Details: mouse BRCA2 R2336H ES cells, olaparib, CellTiter-Glo viability; hits give high values
# In short: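 Mouse BRCA2 R2336H ES cells were reverse-transfected with siRNA (20 nM final), treated at 48 h with 500 nM olaparib, and read by CellTiter-Glo after 72 h. Scores: MAD-based z per siRNA, median per gene, seed off-target correction.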
row,Sequence,z-score
1,GGAUCAAGUGGCUGAUUUGTT against 2700084L22Rik,inactive: 1.53
2,CCAUUCCUUUAGAUUCGUUTT against Crsp7,inactive: -0.547
3,GGCUACAAGGAGAAGUUUGTT against Traf3,inactive: 1.64
4,CGGAAAGGAGCUAAAUGGCTT against Boc,inactive: 0.653
5,CCGUUUAUUUAUCAGCUGGTT against Ssb4,inactive: 0.869
6,GGAAGAAAAAGAUGAGAAATT against Hrc,inactive: 2.11
7,GCCUUUGUGGACCAUCCAATT against Thy1,inactive: 0.438
8,GGCCUAUUUUAUCCAUAGUTT against Olfr623,inactive: 0.481
9,CCUUCAAACCUUUAAGCUUTT against Kcnk13,inactive: 0.931
10,GGACUACGAAUACCCAUCGTT against Cck,inactive: 0.0931
11,CGAGCCUCUGUGAUAUCCATT against Cst11,inactive: 1.28
12,GCAAUAUUUGGGCUAUUAUTT against Ss18,inactive: -3
13,GUGACACUGCUGGGAAACATT against Olfr459,inactive: -2.28
14,GGGAACAUGCUCAUUGCAGTT against Olfr96,inactive: -1.26
15,GCAGGAUUAUGACACGUAUTT against Dgkq,inactive: 0.445
16,GGUUUUUAAGGCUGUUUACTT against 1600012K10Rik,inactive: 0.562
17,GGUCCAGGUGACAAUAAAUTT against 2310076O21Rik,inactive: -1.04
18,GGAACAAGAAACCACAAUGTT against Agpat1,inactive: 0.257
19,GGCUUUAAUGCCUGUAUUATT against Ilvbl,inactive: -0.614
20,GGGUACAAAACUUGAACUUTT against 2700085M18Rik,inactive: -0.398
21,GGGAUUAAGGAUAAAGUUGTT against Usp28,inactive: -0.42
22,GGACUUGGUUUAUGAAACATT against Kif9,inactive: -1.97
23,GGCGACAGCUAAGUGUUGGTT against Rai3,inactive: -0.83
24,GGCAAGUAUGUGUCCUUUGTT against Fhl3,inactive: 1.81
25,GGAGGUGAUGCAGAUGCUGTT against Gpi1,inactive: -1.67
26,GGCAGAUUCUAAAUAUAGCTT against Itga9,inactive: 2.36
27,GGCUACCCAGGGAAUCAAGTT against Snapc4,inactive: 0.302

# As entered above.
# Under z-score, GGCUUUAAUGCCUGUAUUATT against Ilvbl is listed with inactive: -0.614
# Under z-score, CCUUCAAACCUUUAAGCUUTT against Kcnk13 is listed with inactive: 0.931
# Under z-score, GGCUACCCAGGGAAUCAAGTT against Snapc4 is listed with inactive: 0.302
# Under z-score, CCAUUCCUUUAGAUUCGUUTT against Crsp7 is listed with inactive: -0.547
# Under z-score, GGGAUUAAGGAUAAAGUUGTT against Usp28 is listed with inactive: -0.42

# (listing goes on)

row,Sequence,z-score
1,GCAAGAUUUAUCCCAGUCGTT against Rnf2,inactive: -1.54
2,GGCUAAAGGUGUUGAUUUUTT against Slitrk6,inactive: 0.236
3,CCAGACCAUUAACUUGAUUTT against Lsm8,inactive: -0.917
4,GGACCCAGUCAUCUAGUAUTT against Elmo2,inactive: 0.602
5,CCACGGGAGACAAGAUUCUTT against Hmbs,inactive: 1.49
6,GGACCUUCCUACGAGAAAATT against 2410018G23Rik,inactive: -1.34
7,GGGAUCCUGGAAAUUGUAATT against A930014I12Rik,inactive: -0.536
8,GCUGCUUAAUGCCAGGCGATT against Snapap,inactive: 1
9,GCGCAUUAAGGCAGAAAAGTT against Chaf1a,inactive: -2.76
10,GCUAUGACGAUUUCCGUUCTT against Snx26,inactive: 0.306
11,GGUCAGGCUUAUGAAUAUUTT against 2700029E10Rik,inactive: -1.26
12,GCUCCUAAAACAUGAGAAUTT against Cdk9,inactive: -1.75
13,GCCAGAAAAGUACCACCAGTT against Slc35f4,inactive: -1.32
14,GGUAAUGAAUAGGAAACUCTT against Ostm1,inactive: 0.135
15,AAUGACCUUGACAACAUUUTT against Gm1705,inactive: 0.772
16,GCACUUACUCUUCAACGGGTT against 1600012F09Rik,inactive: 1.45
17,GGUGACCUAUGCAUAUAUCTT against D5Ertd606e,inactive: 0.327
18,CCAGGAAGUUACAAUUCAATT against Ccpg1,inactive: 1.46
19,GGCUGUCCGGUUAAAUCCATT against Ifit1,inactive: 0.72
20,CCCUGGUCAAUCUUUUCCGTT against 2610033C09Rik,inactive: 2.05
21,GCUCACUGAAUCUCUACAUTT against Amph,inactive: -0.55
22,GGAAGUCCGUGUUAAGAUUTT against Adh7,inactive: -0.468
23,GGGAUACUUUUUAUUCAGGTT against Nmu,inactive: 0.771
24,GGGAACAGGUUACAUUCAUTT against Gm457,inactive: -0.681
25,GCUACACCCUCUGUGAGUUTT against BC035295,inactive: 0.263
26,CGUCAAUUCACACCAUUCATT against Gsk3a,inactive: -1.77
27,GGGUACCUCGUGGUACAUUTT against Rapgef3,inactive: 2.5

row,Sequence,z-score
1,GCUUUUCGGGCAGGAGAGUTT against 1700034I23Rik,inactive: -1.17
2,GGGAAGUGAGACAUGCUGUTT against Zfp278,inactive: 1.2
3,GGCAAUCAUGUGGACUUCATT against C230071H18Rik,inactive: -0.981
4,CCAGCUAUGAUUUACAUCUTT against Tdpoz1,inactive: -0.765
5,GGCAAAAUAUUGCACAGCGTT against Tsga10,inactive: 0.132
6,GCAUCGACAAAUGAAUUGGTT against 2610022G08Rik,inactive: 0.497
7,GGCAACUCUCGAAUCUUUUTT against Dorz1,inactive: 0.913
8,GGUGAUGAUCUUGUGCCACTT against 5830458K16Rik,inactive: -0.631
9,GGUUAUUCCUAGCUUUAGCTT against V1ri8,inactive: -0.31
10,GGAGUCAAGAUCAUCUUCCTT against Tbc1d10,inactive: -0.361
11,GGGAAUUUUGGAAGAGUCUTT against F630003A18Rik,inactive: -1.19
12,GGCUUUUAAGGUCAUCCCUTT against Bysl,inactive: -1.03
13,GGAAGUCUAUGGUUUUUAGTT against Csnk2b,inactive: -0.512
14,GCCAGAAAGCGUGUCAGAUTT against Hddc2,inactive: -0.909
15,CCUAGAAUUCAUGGAAAAUTT against Olfr1196,inactive: -0.834
16,GGAGCUCCACCCUUAUUCATT against Zfp113,inactive: 0.779
17,GGUGAUUUUGUUGACAUAATT against C80913,inactive: -1.71
18,GGAUGUUUUCCCGACAAGATT against Angptl1,inactive: 1.52
19,GCAGUGAACCGUAUUGGACTT against Ncam1,inactive: 0.536
20,GGGCUCUUCUCAUUCUAUATT against Olfr551,inactive: 0.22
21,GGAAGGUGGAGAAAAUCCGTT against 4930507C10Rik,inactive: -0.537
22,GCUCCAGAAUAUAUUGUUCTT against Arfgap3,inactive: 0.754
23,CCAGACUGAGAAGAUAUGATT against Meox2,inactive: 0.236
24,CCCGGAUAUCCUGUGUCUUTT against 1110030H02Rik,inactive: 1.31
25,GGGUACGUGAAGAAACUUCTT against Meig1,inactive: 0.414
26,CGAAAUUCGGAAUGUAUAUTT against Tnp1,inactive: -0.344
27,GCCAAGUUCAUCAAGAAGCTT against Dapk3,inactive: -0.719

row,Sequence,z-score
1,GGCAUUAUCACAUAAAGGATT against Tec,inactive: 0.209
2,GGUAGAGAGCUCAACAGGGTT against Klrb1c,inactive: 0.357
3,GGACCGGUGUAAGCUUCGATT against AA589481,inactive: 1.25
4,GCAAAUCAUGACUAUUGUATT against 2610110G12Rik,inactive: -1.88
5,GGCCAUUUAUCCAUGGUUGTT against Zdhhc17,inactive: 0.743
6,GCAAGACGCACUGUUACUGTT against BC031353,inactive: -1.42
7,GCAUUACUAUGACCGAUCCTT against Magea4,inactive: -1.2
8,GCGAUGGAUUGUAAAAUUATT against Defb1,inactive: -0.405
9,GCAGGCCUUGUAUAGUGUGTT against Ccar1,inactive: 0.392
10,GGAGAAUGCACAGUUCACUTT against Krt1-16,inactive: -0.416
11,GCCAAGCAUAAUCUAAUGATT against Prpf4b,inactive: -0.377
12,GCCGAACUGUCAGUACUUCTT against Nov,inactive: 0.0205
13,GGAAAUUAUUCCAAGGUCUTT against D5Wsu46e,inactive: -1.09
14,CCUAUCAUAACGGUGAUAATT against Ddb1,inactive: -2.06
15,GGUCCAGCACGUCAAAGACTT against Myo1f,inactive: -0.784
16,GGAUAAACAACAAUGAGAATT against Btg4,inactive: -0.353
17,GCACCUAAGUAAGAUUUGATT against 2310001N14Rik,inactive: -0.962
18,GGCUAUUUCUACCUGUAUCTT against Otop2,inactive: -0.777
19,GGCAUAUUGUUUCAUUUUGTT against Rlbp1,inactive: 0.621
20,GGCAGGCUGUUUGAUCAAGTT against Cyp2a12,inactive: -0.649
21,GGCUGUGUAUGCUGAUGUCTT against Cops7a,inactive: -1.83
22,CCAACUCGUUAUCACUAUATT against 1700001D09Rik,inactive: -0.0393
23,GCAACUUUUAAUUGGUCUATT against Agrn,inactive: 1.42
24,CGUGGUCAGUAAGAUUUAUTT against Rragd,inactive: 0.901
